In patent publication US7884070B2, “Linear cationic peptides having antibacterial and/or antifungal properties” (priority 2002, dated 2011):
Part of at least one peptide drawing is inferred or uncertain, most often the ends. Where a SMILES comes first, the peptide text is derived from it.

Tests used:
Type in all cases: cell-based
[1] = test system: E. coli ATCC 25922; assay: Kinetic study of the antibacterial (bactericidal) activity; settings: for bactericidal activity: kinetic study, FIG. 1 and 2
[2] = test system: Escherichia coli ATCC 25922; settings: 10, 25 or 50% human serum in culture medium
[3] = test system: Pseudomonas aeruginosa ATCC 27853; settings: 10, 25 or 50% human serum in culture medium
[4] = test system: P. aeruginosa ATCC 27853; assay: Kinetic study of the antibacterial (bactericidal) activity

SMILES	decrease in the number of surviving bacteria ([1]; 64 μg/ml (4 times the MIC), 6 hours of incubation)	bactericidal activity [1]	effect of human serum on the antibacterial activity [2]	effect of human serum on the antibacterial activity [3]	decrease in the number of surviving bacteria ([1]; 2 μg/ml (MIC), 30 minutes of incubation) [log]	surviving bacteria ([1]; concentrations higher than 2 μg/ml, 30 minutes of incubation)	surviving bacteria ([4]; 8 μg/ml (MIC), 30 minutes of incubation)	bactericidal activity ([4]; kinetic study, FIG. 3)
CC(C)C[C@H](NC(=O)CNC(=O)[C@H](CCCNC(=N)N)NC(=O)[C@H](CCCCN)NC(=O)[C@@H](N)C(C)C)C(=O)N[C@@H](CCCCN)C(=O)N[C@@H](CC(C)C)C(=O)N[C@@H](CCCCN)C(=O)N[C@@H](CC(C)C)C(=O)N[C@@H](C)C(=O)N[C@@H](CCCCN)C(=O)N[C@@H](CC(C)C)C(=O)N[C@@H](C)C(=O)N[C@@H](CCCCN)C(=O)N[C@@H](CCCCN)C(=O)N[C@@H](CC(C)C)C(=O)N[C@@H](C)C(=O)N[C@@H](CCCCN)C(=O)N[C@@H](CC(C)C)C(=O)N[C@@H](C)C(=O)N[C@@H](CCCCN)C(=O)O [Peptide 1] (H-VKRGLKLKLAKLAKKLAKLAK-OH; N-terminus and C-terminus assumed)	greater than 3 log	bactericidal	increased	not modified				
CC(C)C[C@H](NC(=O)[C@H](CCCCN)NC(=O)[C@H](C)NC(=O)[C@H](CC(C)C)NC(=O)[C@@H](N)CCCCN)C(=O)N[C@@H](C)C(=O)N[C@@H](CCCCN)C(=O)N[C@@H](CCCCN)C(=O)N[C@@H](CC(C)C)C(=O)N[C@@H](C)C(=O)N[C@@H](CCCCN)C(=O)N[C@@H](CC(C)C)C(=O)N[C@@H](C)C(=O)N[C@@H](CCCCN)C(=O)N[C@@H](CCCCN)C(=O)N[C@@H](Cc1c[nH]cn1)C(=O)N[C@@H](CC(C)C)C(=O)N[C@@H](CCCCN)C(=O)N[C@@H](CCCCN)C(=O)N[C@@H](Cc1c[nH]cn1)C(=O)N[C@@H](CC(C)C)C(=O)N[C@@H](CCCCN)C(=O)N[C@@H](CCCCN)C(=O)N[C@@H](Cc1c[nH]cn1)C(=O)N[C@@H](CC(C)C)C(=O)N[C@@H](CCCCN)C(=O)O [Peptide 2] (H-KLAKLAKKLAKLAKKHLKKHLKKHLK-OH; N-terminus and C-terminus assumed)		strong bactericidal activity	did not have any effect	diminished	5	no surviving bacteria could be detected	total absence of surviving bacteria	strong bactericidal activity
